These are yes or no findings as the source states them, for the method shown. Binding seen in cells or lysates may run through a third protein. Some results given as binding are weak or reduced against the parent protein; the word gives no strength. Tags and fused reporters may be left off the sequences shown.
T1: SP-Flag-Testican-2 (human) (UniProt Q92563)
T1 sequence: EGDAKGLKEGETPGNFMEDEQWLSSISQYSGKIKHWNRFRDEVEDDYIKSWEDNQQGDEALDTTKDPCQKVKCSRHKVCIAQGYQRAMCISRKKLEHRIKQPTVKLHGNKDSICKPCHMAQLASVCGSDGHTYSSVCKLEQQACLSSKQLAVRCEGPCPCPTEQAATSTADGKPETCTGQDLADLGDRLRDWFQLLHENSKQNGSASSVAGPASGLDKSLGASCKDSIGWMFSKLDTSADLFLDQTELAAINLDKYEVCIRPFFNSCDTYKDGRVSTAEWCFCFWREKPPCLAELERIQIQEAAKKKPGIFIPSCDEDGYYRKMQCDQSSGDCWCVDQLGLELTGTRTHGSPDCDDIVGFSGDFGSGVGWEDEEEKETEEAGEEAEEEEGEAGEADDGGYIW

T2: Wnt5a-HA (UniProt P41221)
T2 sequence: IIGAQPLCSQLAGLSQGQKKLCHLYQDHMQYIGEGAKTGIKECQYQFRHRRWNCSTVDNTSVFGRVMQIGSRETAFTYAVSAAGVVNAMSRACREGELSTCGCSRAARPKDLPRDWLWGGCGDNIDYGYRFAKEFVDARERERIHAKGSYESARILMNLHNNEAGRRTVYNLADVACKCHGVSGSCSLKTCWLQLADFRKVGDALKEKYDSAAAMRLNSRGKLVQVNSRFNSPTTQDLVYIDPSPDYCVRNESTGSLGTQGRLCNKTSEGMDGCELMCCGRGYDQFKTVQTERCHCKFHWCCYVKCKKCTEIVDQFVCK


Experiments:
[1] = target: T1, SP-Flag-Testican-2 (human); assay: co-IP; extracellular binding assay: culture supernatants of separately transfected S2 cells collected after 48 h, 500 ug of protein from each mixed in different combinations, immunoprecipitated with anti-HA or anti-Flag
[2] = target: T2, Wnt5a-HA; assay: as above

binding [1]	binding [2]	Binder
binds	–	Wnt5a-HA (protein, UniProt P41221 62-380) IIGAQPLCSQLAGLSQGQKKLCHLYQDHMQYIGEGAKTGIKECQYQFRHRRWNCSTVDNTSVFGRVMQIGSRETAFTYAVSAAGVVNAMSRACREGELSTCGCSRAARPKDLPRDWLWGGCGDNIDYGYRFAKEFVDARERERIHAKGSYESARILMNLHNNEAGRRTVYNLADVACKCHGVSGSCSLKTCWLQLADFRKVGDALKEKYDSAAAMRLNSRGKLVQVNSRFNSPTTQDLVYIDPSPDYCVRNESTGSLGTQGRLCNKTSEGMDGCELMCCGRGYDQFKTVQTERCHCKFHWCCYVKCKKCTEIVDQFVCK
–	binds	SP-Flag-Testican-2 (protein, UniProt Q92563 23-424) EGDAKGLKEGETPGNFMEDEQWLSSISQYSGKIKHWNRFRDEVEDDYIKSWEDNQQGDEALDTTKDPCQKVKCSRHKVCIAQGYQRAMCISRKKLEHRIKQPTVKLHGNKDSICKPCHMAQLASVCGSDGHTYSSVCKLEQQACLSSKQLAVRCEGPCPCPTEQAATSTADGKPETCTGQDLADLGDRLRDWFQLLHENSKQNGSASSVAGPASGLDKSLGASCKDSIGWMFSKLDTSADLFLDQTELAAINLDKYEVCIRPFFNSCDTYKDGRVSTAEWCFCFWREKPPCLAELERIQIQEAAKKKPGIFIPSCDEDGYYRKMQCDQSSGDCWCVDQLGLELTGTRTHGSPDCDDIVGFSGDFGSGVGWEDEEEKETEEAGEEAEEEEGEAGEADDGGYIW
